Test results reported in PubChem BioAssay AID1347131 (National Center for Advancing Translational Sciences (NCATS), 2019).
Out of some 410,000 compounds screened, about 2,000 (0.49%) were called active. The shares of active, inactive and inconclusive entries below differ from those in the screen. The call rests on the fitted dose curve; tested in HEK293 reporter line. Potencies beside an inconclusive call are fits to weak or partial responses and may not hold up.

Assay: qHTS Assay for Foot and Mouth Disease Virus Antivirals: Primary Screen against the MLPCN compound library; further: nearly all actives have a fitted effect of over 55% in size
Conditions: FMDV antiviral cell-based qHTS; activity, negative = inhibition: at 57.9 µM (top of the series)
Potency means the concentration at half of the fitted maximal effect.

Question: Which Potency does the source give for `COc1ccc(N2CCN(c3cc(C(=O)Nc4cc(OC)c(OC)c(OC)c4)ncn3)CC2)cc1OC` here?
Answer: inconclusive: 4.47 µM [inhibitor, full curve]

Question: For `Cc1cc(/C=C2\Cc3ccccc3C2=O)c(C)n1-c1ccccc1`, which Potency is on record?
Answer: inconclusive: 12.6 µM [inhibitor, partial curve, poor fit]

Question: With `Cc1cccc(N2CCN(C(=O)C3CCC(CNS(=O)(=O)c4cccs4)CC3)CC2)c1C` (centres undefined) as the molecule, how does the Potency read?
Answer: inconclusive: 10 µM [inhibitor, partial curve]

Question: With `Cc1ccc(S(=O)(=O)N(C)CCCC(=O)Nc2cc(C)ccc2C)cc1` as the molecule, how does the “activity, negative = inhibition” value read?
Answer: inactive: -34.2%

Question: With `Cc1ccc(C(=O)Nc2ccc(S(=O)(=O)N3CCc4ccccc43)cc2)o1` as the molecule, how does the Potency read?
Answer: inconclusive: 31.6 µM [inhibitor, single point]

Question: For `Cc1ccc(-c2nc(C(=O)N3CCN(c4ccccc4)CC3)c3n2CCCCC3)cc1`, which activity, negative = inhibition is on record?
Answer: inconclusive: -31.8% [inhibitor]

Question: With `Brc1ccc(-c2cn3ccccc3n2)cc1` as the molecule, how does the Potency read?
Answer: active: 11.2 µM

Question: For `Cc1cccc(C(=O)OC2CCOC2=O)c1O` (centres undefined), which Potency is on record?
Answer: inconclusive: 4.47 µM [inhibitor, full curve]

Question: With `Cc1ccc(N2CCN(S(=O)(=O)c3ccc(-n4cnnn4)cc3)CC2)c(C)c1` as the molecule, how does the Potency read?
Answer: inconclusive: 7.08 µM [inhibitor, partial curve, poor fit]

Question: Which Potency does the source give for `COc1ccc(/C(=C\C(=O)O)c2nccc3cc(OC)c(OC)cc23)cc1OC` here?
Answer: inconclusive: 2.51 µM [inhibitor, partial curve, poor fit]

Question: With `Cc1nc(SCC(=O)Nc2nc3ccccc3s2)c(C#N)c(C)c1C` as the molecule, how does the “activity, negative = inhibition” value read?
Answer: inactive: -97.5%

Question: With `CN(C)c1ccc(/C=N/Nc2cccc(C(=O)O)c2)cc1` as the molecule, how does the Potency read?
Answer: inconclusive: 3.98 µM [inhibitor, partial curve, poor fit]

Question: With `CC(=O)c1c(C)[nH]c(C(=O)CN2C(=O)NC(CCc3ccccc3)C2=O)c1C` (centres undefined) as the molecule, how does the activity, negative = inhibition read?
Answer: inconclusive: -32.3% [inhibitor]

Question: Which Potency does the source give for `COC1=C(N)C(=O)c2nc(-c3nc(C(=O)O)c(C)c(-c4ccc(OC)c(OC)c4O)c3N)ccc2C1=O` here?
Answer: inconclusive: 3.98 µM [inhibitor, full curve, poor fit]

Question: Which “activity, negative = inhibition” value does the source give for `CSc1ccccc1NC(=O)CSCc1ccc(Br)cc1` here?
Answer: inactive: -36.5%

Question: Which Potency does the source give for `COc1ccc2c(c1)sc1nc(-c3ccccc3)cn12` here?
Answer: inconclusive: 7.94 µM [inhibitor, full curve, poor fit]

Question: Which Potency does the source give for `NS(=O)(=O)c1ccc(CCNC(=O)c2cccc3ccccc23)cc1` here?
Answer: inconclusive: 2.82 µM [inhibitor, full curve]

Question: Which Potency does the source give for `CN(C)c1ccc(/C=N/N=C2/NC(=O)/C(=C/c3ccc([N+](=O)[O-])cc3)S2)cc1` here?
Answer: inconclusive: 8.91 µM [inhibitor, partial curve, poor fit]

Question: Which Potency does the source give for `CCOC(=O)c1oc2ccccc2c1COC(=O)C(C)NC(=O)c1ccco1` (centres undefined) here?
Answer: inconclusive: 0.891 µM [inhibitor, full curve]

Question: With `CC1CCCCN1C(=O)CSc1c2c(nc3cc(Cl)ccc13)CCCC2` (centres undefined) as the molecule, how does the “activity, negative = inhibition” value read?
Answer: inactive: -37.7%

Question: For `Cc1ccc(-n2ncc3c(Nc4cccc(C(F)(F)F)c4)ncnc32)cc1C`, which Potency is on record?
Answer: inconclusive: 8.91 µM [inhibitor, partial curve]

Question: Which Potency does the source give for `CN(c1ccccc1)c1ccc(/C=C/[N+](=O)[O-])cc1` here?
Answer: inconclusive: 15.8 µM [inhibitor, partial curve, poor fit]

Question: With `COC(=O)c1cn(NC(=O)c2cc([N+](=O)[O-])ccc2F)c(=O)c2ccccc12` as the molecule, how does the Potency read?
Answer: inconclusive: 31.6 µM [inhibitor, partial curve, poor fit]

Question: For `Cc1nc(SCC(=O)NCc2ccccc2)c2c(=O)n(C)c(=O)n(C)c2n1`, which Potency is on record?
Answer: inconclusive: 31.6 µM [inhibitor, single point]

Question: Which Potency does the source give for `CCOc1cccc2sc(N(CCN(CC)CC)C(=O)c3ccc(S(=O)(=O)N4CCCCC4)cc3)nc12` here?
Answer: inconclusive: 4.47 µM [inhibitor, single point]

Question: With `Cc1ccc(NC(=O)c2cc(S(=O)(=O)NCCC3=CCCCC3)ccc2F)cc1C` as the molecule, how does the Potency read?
Answer: inconclusive: 17.8 µM [inhibitor, single point]

Question: Which Potency does the source give for `Cc1nn2c(=O)cc(COC(=O)c3ccc(NC(=O)COc4ccc(Cl)cc4)cc3)nc2s1` here?
Answer: inconclusive: 15.8 µM [inhibitor, partial curve, poor fit]

Question: For `CCCCCn1c(CCCNC(=O)c2cccc(C)c2)nc2ccccc21`, which “activity, negative = inhibition” value is on record?
Answer: inactive: -37.7%

Question: With `CSC[C@@H]1NC(=S)N(c2ccc(C)cc2)C1=O` as the molecule, how does the Potency read?
Answer: inconclusive: 11.2 µM [inhibitor, partial curve, poor fit]

Question: With `O=c1c2ccccc2nc2n1C(CSCc1ccc(Cl)cc1Cl)CS2` (centres undefined) as the molecule, how does the Potency read?
Answer: inconclusive: 17.8 µM [inhibitor, partial curve, poor fit]

Question: Which Potency does the source give for `O=C(NC(c1ccc(-c2ccccc2)cc1)c1cnccn1)C1CCN(CCOc2ccc(Cl)cc2Cl)CC1` (centres undefined) here?
Answer: inconclusive: 35.5 µM [inhibitor, partial curve, poor fit]

Question: Which “activity, negative = inhibition” value does the source give for `COc1ccc(C(=O)Nc2ccc(C)cn2)c(OC)c1` here?
Answer: inactive: -97.6%

Question: With `COc1ccc(NC(=O)C2CCC(C(C)(C)C)CC2)cc1S(=O)(=O)N1CCCCC1` (centres undefined) as the molecule, how does the Potency read?
Answer: inconclusive: 17.8 µM [inhibitor, partial curve, poor fit]

Question: With `CCN(CC)C(=O)c1oc2ccc(S(=O)(=O)N3CC(C)CC(C)C3)cc2c1C` (centres undefined) as the molecule, how does the Potency read?
Answer: inconclusive: 2.51 µM [inhibitor, full curve]

Question: For `O=C(/C=C/c1ccc2c(c1)OCO2)c1c(O)n(CCc2ccccc2)c(=O)[nH]c1=O`, which Potency is on record?
Answer: inconclusive: 12.6 µM [inhibitor, partial curve, poor fit]

Question: Which Potency does the source give for `CCN(CC)c1ccc(/C=N/Nc2nc3ccccc3[nH]2)cc1` here?
Answer: inconclusive: 17.8 µM [inhibitor, single point]

Question: With `CCc1nc2c(OCc3ccc(Cl)cc3Cl)cccn2c1N(C)C(=O)C(C)C` as the molecule, how does the Potency read?
Answer: inconclusive: 31.6 µM [inhibitor, partial curve, poor fit]

Question: For `COCCN(C(=O)CCSc1ccc(F)cc1)c1c(N)n(Cc2ccccc2)c(=O)[nH]c1=O`, which activity, negative = inhibition is on record?
Answer: inconclusive: -31.6% [inhibitor]

Question: With `COc1ccc(N2CCN(C(=O)c3ccc4c(=O)n(CCc5ccc(OC)c(OC)c5)c(=O)[nH]c4c3)CC2)cc1` as the molecule, how does the Potency read?
Answer: inconclusive: 28.2 µM [inhibitor, partial curve, poor fit]

Question: For `NS(=O)(=O)c1cccc(NS(=O)(=O)c2ccc(/C=C/C(=O)OCC(=O)c3ccccc3)cc2)c1`, which Potency is on record?
Answer: inconclusive: 11.2 µM [inhibitor, partial curve]

Question: For `Cc1nn(-c2ccccc2)c(C)c1NC(=O)COc1cc(F)ccc1[N+](=O)[O-]`, which Potency is on record?
Answer: inconclusive: 25.1 µM [inhibitor, partial curve, poor fit]

Question: For `CCOC(=O)N1CCC(NC(=O)c2ccc(N3CCC4(CC3)OCCO4)c([N+](=O)[O-])c2)CC1`, which Potency is on record?
Answer: inconclusive: 25.1 µM [inhibitor, partial curve, poor fit]

Question: Which Potency does the source give for `O=C1CC(c2nnc(Cc3cccc(Cl)c3)o2)CN1c1ccccc1` (centres undefined) here?
Answer: inconclusive: 3.55 µM [inhibitor, full curve]

Question: Which Potency does the source give for `N/C(=N\OC(=O)c1ccccc1Cl)c1cccnc1` here?
Answer: inconclusive: 20 µM [inhibitor, single point]

Question: With `CCn1c(=S)sc2c(=O)n(CC(=O)Nc3ccccc3OC)c(C)nc21` as the molecule, how does the Potency read?
Answer: inconclusive: 15.8 µM [inhibitor, single point]

Question: For `Cc1ccc(CCNc2nc3c(S(=O)(=O)c4ccccc4)nnn3c3ccsc23)cc1`, which Potency is on record?
Answer: inconclusive: 12.6 µM [inhibitor, partial curve]

Question: For `COc1ccc(-n2nc(C#N)c(Cl)cc2=O)cc1`, which Potency is on record?
Answer: inconclusive: 22.4 µM [inhibitor, partial curve, poor fit]

Question: Which Potency does the source give for `COc1ccc([C@H]2CC(=O)C=C(c3cc(F)ccc3F)C2)cc1OC` here?
Answer: inconclusive: 31.6 µM [inhibitor, single point]

Question: For `CCOc1ccc(N2C(=O)/C(=C\c3cccs3)C(=O)NC2=S)cc1`, which Potency is on record?
Answer: inconclusive: 20 µM [inhibitor, single point]

Question: With `Cc1ccc(-n2ncc3c2CC(C)(C)CC3NC(=O)CCc2cnn(C)c2)cc1` (centres undefined) as the molecule, how does the Potency read?
Answer: inconclusive: 31.6 µM [inhibitor, partial curve, poor fit]

Question: With `COc1cccc(-c2nn(-c3ccccc3)cc2C(=O)n2nnc3ccccc32)c1` as the molecule, how does the Potency read?
Answer: inconclusive: 39.8 µM [inhibitor, partial curve, poor fit]

Question: For `CCn1c(SCC(=O)Nc2ccc(C)cc2)nnc1-c1ccc(O)cc1`, which Potency is on record?
Answer: inconclusive: 17.8 µM [inhibitor, single point]

Question: With `Cc1noc(C)c1COC(=O)C1CCN(C(=O)c2ccc(Cl)cc2)CC1` as the molecule, how does the Potency read?
Answer: inconclusive: 22.4 µM [inhibitor, partial curve, poor fit]

Question: With `CC1CCCN(C(=S)SCC(=O)c2cc(Br)cc(Br)c2O)C1` (centres undefined) as the molecule, how does the Potency read?
Answer: inconclusive: 11.2 µM [inhibitor, partial curve]

Question: Which Potency does the source give for `Clc1ccc(Nc2c3c(nc4ncnn24)CCC3)cc1` here?
Answer: inconclusive: 17.8 µM [inhibitor, partial curve, poor fit]

Question: With `COc1ccc(C(CCN(Cc2ccc(OC)c(OC)c2)C(=O)CCl)c2ccccc2)cc1` (centres undefined) as the molecule, how does the Potency read?
Answer: inconclusive: 31.6 µM [inhibitor, partial curve, poor fit]

Question: With `CCN(c1cccc(C(F)(F)F)c1)S(=O)(=O)c1ccc2c(c1)CCN2C(=O)C1CC1` as the molecule, how does the Potency read?
Answer: inconclusive: 14.1 µM [inhibitor, partial curve, poor fit]

Question: Which Potency does the source give for `CCCCc1ccc(-c2nc(-c3ccncc3)no2)cc1` here?
Answer: inconclusive: 39.8 µM [inhibitor, single point]

Question: Which Potency does the source give for `Cc1nc(N2CCC(C)CC2)c2c(C)c(C(=O)Nc3cc(F)ccc3C)sc2n1` here?
Answer: inconclusive: 28.2 µM [inhibitor, partial curve, poor fit]
